Reference: the supplement of paper PMC8728848
The list shows a part of the results.

Assays:
Experiment in all cases: glycan array binding signal (z-score within array); higher = stronger binding
Settings in all cases: glycan notation: IUPAC condensed, linker removed
[1] = molecular target: Neu5Ac(a2-3)Gal(b1-4)GlcNAc(b1-3)Gal(b1-4)GlcNAc(b1-3)Gal(b1-4)GlcNAc
Method in brief: (§1)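 The binding signal is a Z-score computed within each array and averaged over linkers. Arrays of the same protein sequence at different concentrations or buffers were also averaged together. Data originate from 3228 arrays in the Consortium for Functional Glycomics database, kept only where the protein sequence was available.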

[2] = molecular target: Neu5Ac(a2-3)Gal(b1-4)GlcNAc(b1-3)Gal(b1-4)GlcNAc(b1-3)Gal(b1-4)GlcNAc(b1-2)Man(a1-3)[Neu5Ac(a2-3)Gal(b1-4)GlcNAc(b1-3)Gal(b1-4)GlcNAc(b1-3)Gal(b1-4)GlcNAc(b1-2)Man(a1-6)]GalNAc
Method in brief: as §1

[3] = molecular target: Neu5Ac(a2-3)Gal(b1-4)GlcNAc(b1-3)Gal(b1-4)GlcNAc(b1-3)GalNAc
Method in brief: as §1

[4] = molecular target: Neu5Ac(a2-3)Gal(b1-4)GlcNAc(b1-3)Gal(b1-4)GlcNAc(b1-3)[Neu5Ac(a2-3)Gal(b1-4)GlcNAc(b1-3)Gal(b1-4)GlcNAc(b1-6)]GalNAc
Method in brief: as §1

[5] = molecular target: Neu5Ac(a2-3)Gal(b1-4)GlcNAc(b1-3)Gal(b1-4)GlcNAc(b1-6)[Gal(b1-3)]GalNAc
Method in brief: as §1

[6] = molecular target: Neu5Ac(a2-3)Gal(b1-4)GlcNAc(b1-3)Gal(b1-4)[Fuc(a1-3)]GlcNAc
Method in brief: as §1

[7] = molecular target: Neu5Ac(a2-3)Gal(b1-4)GlcNAc(b1-3)GalNAc
Method in brief: as §1

[8] = molecular target: Neu5Ac(a2-3)Gal(b1-4)GlcNAc(b1-3)[Neu5Ac(a2-3)Gal(b1-4)GlcNAc(b1-6)]GalNAc
Method in brief: as §1

[9] = molecular target: Neu5Ac(a2-3)Gal(b1-4)GlcNAc(b1-6)GalNAc
Method in brief: as §1

[10] = molecular target: Neu5Ac(a2-3)Gal(b1-4)GlcNAc(b1-6)[Gal(b1-3)]GalNAc
Method in brief: as §1

[11] = molecular target: Neu5Ac(a2-3)Gal(b1-4)GlcNAc(b1-6)[Neu5Ac(a2-3)Gal(b1-3)]GalNAc
Method in brief: as §1

[12] = molecular target: Neu5Ac(a2-3)Gal(b1-4)GlcNAc6S
Method in brief: as §1

[13] = molecular target: Neu5Ac(a2-3)Gal(b1-4)[Fuc(a1-3)]GlcNAc
Method in brief: as §1

[14] = molecular target: Neu5Ac(a2-3)Gal(b1-4)[Fuc(a1-3)]GlcNAc(b1-2)Man
Method in brief: as §1

[15] = molecular target: Neu5Ac(a2-3)Gal(b1-4)[Fuc(a1-3)]GlcNAc(b1-3)Gal
Method in brief: as §1

[16] = molecular target: Neu5Ac(a2-3)Gal(b1-4)[Fuc(a1-3)]GlcNAc(b1-3)Gal(b1-4)GlcNAc
Method in brief: as §1

[17] = molecular target: Neu5Ac(a2-3)Gal(b1-4)[Fuc(a1-3)]GlcNAc(b1-3)Gal(b1-4)[Fuc(a1-3)]GlcNAc(b1-3)Gal(b1-4)[Fuc(a1-3)]GlcNAc
Method in brief: as §1

[18] = molecular target: Neu5Ac(a2-3)Gal(b1-4)[Fuc(a1-3)]GlcNAc(b1-3)GalNAc
Method in brief: as §1

[19] = molecular target: Neu5Ac(a2-3)Gal(b1-4)[Fuc(a1-3)]GlcNAc(b1-6)[Gal(b1-3)]GalNAc
Method in brief: as §1

[20] = molecular target: Neu5Ac(a2-3)Gal(b1-4)[Fuc(a1-3)]GlcNAc(b1-6)[Neu5Ac(a2-3)Gal(b1-3)]GalNAc
Method in brief: as §1

[21] = molecular target: Neu5Ac(a2-3)Gal(b1-4)[Fuc(a1-3)]GlcNAc6S
Method in brief: as §1

[22] = molecular target: Neu5Ac(a2-3)Gal6S(b1-4)GlcNAc
Method in brief: as §1

[23] = molecular target: Neu5Ac(a2-3)Gal6S(b1-4)[Fuc(a1-3)]GlcNAc
Method in brief: as §1

Neu5Ac(a2-3)GalNAc = molecular target: Neu5Ac(a2-3)GalNAc
Method in brief: as §1

[24] = molecular target: Neu5Ac(a2-3)GalNAc(b1-4)GlcNAc
Method in brief: as §1

[25] = molecular target: Neu5Ac(a2-3)[GalNAc(b1-4)]Gal(b1-4)Glc
Method in brief: as §1

[26] = molecular target: Neu5Ac(a2-3)[GalNAc(b1-4)]Gal(b1-4)GlcNAc
Method in brief: as §1

[27] = molecular target: Neu5Ac(a2-3)[GalNAc(b1-4)]Gal(b1-4)GlcNAc(b1-3)GalNAc
Method in brief: as §1

[28] = molecular target: Neu5Ac(a2-3)[Neu5Ac(a2-6)]GalNAc
Method in brief: as §1

Neu5Ac(a2-6)Gal = molecular target: Neu5Ac(a2-6)Gal
Method in brief: as §1

[29] = molecular target: Neu5Ac(a2-6)Gal(b1-3)GlcNAc(b1-3)[Gal(b1-4)GlcNAc(b1-6)]Gal(b1-4)Glc
Method in brief: as §1

Neu5Ac(a2-6)Gal(b1-4)Glc = molecular target: Neu5Ac(a2-6)Gal(b1-4)Glc
Method in brief: as §1

[30] = molecular target: Neu5Ac(a2-6)Gal(b1-4)GlcNAc
Method in brief: as §1

[31] = molecular target: Neu5Ac(a2-6)Gal(b1-4)GlcNAc(b1-2)Man
Method in brief: as §1

[32] = molecular target: Neu5Ac(a2-6)Gal(b1-4)GlcNAc(b1-2)Man(a1-3)Man(b1-4)GlcNAc(b1-4)GlcNAc
Method in brief: as §1

[33] = molecular target: Neu5Ac(a2-6)Gal(b1-4)GlcNAc(b1-2)Man(a1-3)[Gal(b1-4)GlcNAc(b1-2)Man(a1-6)]Man(b1-4)GlcNAc(b1-4)GlcNAc
Method in brief: as §1

[34] = molecular target: Neu5Ac(a2-6)Gal(b1-4)GlcNAc(b1-2)Man(a1-3)[GlcNAc(b1-2)Man(a1-6)]Man(b1-4)GlcNAc(b1-4)GlcNAc
Method in brief: as §1

[35] = molecular target: Neu5Ac(a2-6)Gal(b1-4)GlcNAc(b1-2)Man(a1-3)[GlcNAc(b1-4)][Neu5Ac(a2-6)Gal(b1-4)GlcNAc(b1-2)Man(a1-6)]Man(b1-4)GlcNAc(b1-4)GlcNAc
Method in brief: as §1

B1: Epa3to2 (Candida glabrata) (protein)
chain: MGSSHHHHHHSSGLVPRGSHMKRELSSQNPFGYPIGCSPQDVAIIPGLTMELYSYPIVSGTPPNCYDASYVDPEYPRTGYLKRKMVGKSTGVTGNLNYKYSVEKACMVKYGNLPAGYNYNEPLTVSNFTMILYGYFKAQTTGLHTFFVNADDLLYINFGAGNAFDCCKREDSKTKLGEYVAYDIWHVDSSKNKVSLFLEKDLYYPIRMFFNNRDNNSSLDLSFSVNGATDQISDFSGYLYSVPDQPDTCPAHIGYDTTCR
**Q.** For B1, which “glycan array binding signal (z-score)” value [1] is on record?
**A.** 0.849

**Q.** What about the “glycan array binding signal (z-score)” value [2] of the same binder?
**A.** -0.218

**Q.** And the “glycan array binding signal (z-score)” value [3]?
**A.** -0.207

**Q.** What about the “glycan array binding signal (z-score)” value [4] of the same binder?
**A.** 0.371

**Q.** What about the “glycan array binding signal (z-score)” value [5] of the same binder?
**A.** -1.8

**Q.** What about the “glycan array binding signal (z-score)” value [6] of the same binder?
**A.** -0.147

**Q.** What about the “glycan array binding signal (z-score)” value [7] of the same binder?
**A.** 0.337

**Q.** What about the “glycan array binding signal (z-score)” value [8] of the same binder?
**A.** -0.853

**Q.** What about the “glycan array binding signal (z-score)” value [9] of the same binder?
**A.** 0.557

**Q.** What about the “glycan array binding signal (z-score)” value [10] of the same binder?
**A.** -0.072

**Q.** And the “glycan array binding signal (z-score)” value [11]?
**A.** -0.836

**Q.** And the “glycan array binding signal (z-score)” value [12]?
**A.** -0.663

**Q.** And the “glycan array binding signal (z-score)” value [13]?
**A.** -0.974

**Q.** What about the “glycan array binding signal (z-score)” value [14] of the same binder?
**A.** -0.793

**Q.** And the “glycan array binding signal (z-score)” value [15]?
**A.** -0.361

**Q.** What about the “glycan array binding signal (z-score)” value [16] of the same binder?
**A.** 0.95

**Q.** And the “glycan array binding signal (z-score)” value [17]?
**A.** 0.524

**Q.** What about the “glycan array binding signal (z-score)” value [18] of the same binder?
**A.** 1.13

**Q.** And the “glycan array binding signal (z-score)” value [19]?
**A.** 0.206

**Q.** What about the “glycan array binding signal (z-score)” value [20] of the same binder?
**A.** 0.2

**Q.** What about the “glycan array binding signal (z-score)” value [21] of the same binder?
**A.** -0.508

**Q.** And the “glycan array binding signal (z-score)” value [22]?
**A.** -0.301

**Q.** What about the “glycan array binding signal (z-score)” value [23] of the same binder?
**A.** -0.813

**Q.** What about the “glycan array binding signal (z-score)” value (Neu5Ac(a2-3)GalNAc) of the same binder?
**A.** -0.084

**Q.** What about the “glycan array binding signal (z-score)” value [24] of the same binder?
**A.** -0.344

**Q.** What about the “glycan array binding signal (z-score)” value [25] of the same binder?
**A.** -1.38

**Q.** And the “glycan array binding signal (z-score)” value [26]?
**A.** -0.17

**Q.** What about the “glycan array binding signal (z-score)” value [27] of the same binder?
**A.** 0.187

**Q.** And the “glycan array binding signal (z-score)” value [28]?
**A.** -1.13

**Q.** What about the “glycan array binding signal (z-score)” value (Neu5Ac(a2-6)Gal) of the same binder?
**A.** 0.581

**Q.** And the “glycan array binding signal (z-score)” value [29]?
**A.** -0.463

**Q.** And the “glycan array binding signal (z-score)” value (Neu5Ac(a2-6)Gal(b1-4)Glc)?
**A.** -0.291

**Q.** And the “glycan array binding signal (z-score)” value [30]?
**A.** -0.477

**Q.** What about the “glycan array binding signal (z-score)” value [31] of the same binder?
**A.** -0.293

**Q.** And the “glycan array binding signal (z-score)” value [32]?
**A.** 2.19

**Q.** What about the “glycan array binding signal (z-score)” value [33] of the same binder?
**A.** 0.88

**Q.** And the “glycan array binding signal (z-score)” value [34]?
**A.** -0.347

**Q.** And the “glycan array binding signal (z-score)” value [35]?
**A.** -0.89
